Assay results: the supplement of paper PMC4962491
± gives the standard deviation of the averaged measurements. This is a selection; strong and weak results do not stand in their true shares. Single values are uncertain here, since repeats match poorly.

Tested on: FaDu
Experiment: mitochondrial oxygen consumption rate normalised to cell number, Z score over the library; higher = higher oxygen consumption (negative = OCR reduction)
Conditions: treatment time 24 h, assay medium: 5 mM galactose, 5 mM pyruvate, 4 mM glutamine
Method: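 Primary screen: FaDu cells were incubated 24 h with Pharmakon 1600 / TDI oncology set compounds at 2 or 10 uM. Mitochondrial-specific OCR (basal minus 2 uM antimycin A) was measured on a Seahorse XF96 in assay medium with 5 mM galactose, 5 mM pyruvate and 4 mM glutamine, then corrected for Hoechst cell number and expressed as a Z score […]. Compounds that cut cell number by >66% were excluded. Two repeats.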

SMILES	mitochondrial oxygen consumption rate normalised (2 µM)	mitochondrial oxygen consumption rate normalised (10 µM)
O=C(CNC(=O)c1ccc(Cl)cc1)NO	-0.322 ± 0.45	–
CN(C)CCC[C@@]1(c2ccc(F)cc2)OCc2cc(C#N)ccc21	0.152 ± 0.066	–
CCCC(=O)Nc1ncnc2c1ncn2[C@@H]1O[C@@H]2COP(=O)(O)O[C@H]2[C@H]1OC(=O)CCC	-0.648 ± 0.33	–
CC1=CC(=O)NS(=O)(=O)O1	-0.535 ± 1	–
NC(=O)N/N=C/c1ccc([N+](=O)[O-])o1	-1.2 ± 0.83	–
O=C(O[C@H]1CN2CCC1CC2)N1CCc2ccccc2[C@@H]1c1ccccc1	-0.199 ± 0.37	–
Cc1ncc(CSSCc2cnc(C)c(O)c2CO)c(CO)c1O	-0.515 ± 0.18	–
CC(=O)Oc1cccc2c1C(=O)c1c(OC(C)=O)cc(C(=O)O)cc1C2=O	-0.673 ± 0.13	–
N=C(N)NC(=N)N1CCOCC1	-0.189 ± 0.45	–
C=C1C[C@H]2[C@@H]3C=C(C)C4=CC(=O)CC[C@]4(C)[C@H]3CC[C@]2(C)[C@@]1(OC(C)=O)C(C)=O	0.0119 ± 0.37	–
N[C@H]1C(O)O[C@H](CO)[C@@H](O)[C@@H]1O (some centres not stated)	-0.741 ± 1.4	–
OCCN1CCN(CCCN2c3ccccc3Sc3ccc(Cl)cc32)CC1	-0.731 ± 1.3	–
Nc1ccc(S(=O)(=O)c2ccc(N)cc2)cc1	0.255 ± 1.2	–
Nc1ccc(C(=O)NCC(=O)O)cc1	0.751 ± 0.43	–
COc1ccc(NS(=O)(=O)c2ccc(N)cc2)nn1	-0.198 ± 0.81	–
Cn1nnnc1SCC1=C(C(=O)O)N2C(=O)[C@@H](NC(=O)[C@H](O)c3ccccc3)[C@H]2SC1	0.541 ± 0.039	0.376 ± 0.31
CCC[C@H](N[C@@H](C)C(=O)N1[C@H](C(=O)O)C[C@@H]2CCCC[C@@H]21)C(=O)OCC	0.637 ± 0.94	–
N=C(N)NCC1COC2(CCCCC2)O1 (configuration not stated)	0.201 ± 0.017	–
CC1(C)OC(=O)NC1=O	-0.838 ± 0.56	–
Cc1scc2c1N(C(=O)CN1CCN(C)CC1)c1ccccc1NC2=O	-0.583 ± 0.41	–
c1ccc(C2CN3CCSC3=N2)cc1 (configuration not stated)	0.695 ± 0.14	–
C=C1c2cccc(O)c2C(=O)C2=C(O)[C@]3(O)C(=O)C(C(N)=O)=C(O)[C@@H](N(C)C)[C@@H]3[C@@H](O)[C@H]12	-0.773 ± 0.65	–

SMILES	mitochondrial oxygen consumption rate normalised (2 µM)	mitochondrial oxygen consumption rate normalised (10 µM)
Cn1c(=O)c2nc[nH]c2n(C)c1=O	0.969 ± 0.13	–
Cc1nc2ccccc2n1Cc1ccc(Cl)cc1	-0.463 ± 0.92	–
Cc1cc(=O)oc2cc(O)ccc12	-0.593 ± 0.18	0.758 ± 0.23
O=C(NCc1ccccc1)OCCO	0.246 ± 0.27	1.42 ± 0.86
OC[C@H]1O[C@H]([S-])[C@H](O)[C@@H](O)[C@@H]1O.[Au+]	1.32 ± 0.1	–
CC(=O)c1ccc(S(=O)(=O)NC(=O)NC2CCCCC2)cc1	0.532 ± 0.041	–
COc1ccc(CN(CCN(C)C)c2ccccn2)cc1	-0.956 ± 0.69	–
CCCNC(C)C(=O)Nc1ccccc1C (configuration not stated)	-0.271 ± 1.6	-0.507 ± 1.1
Nc1ncn([C@@H]2O[C@H](CO)[C@@H](O)[C@H]2O)c(=O)n1 [Azacitidine]	0.772 ± 0.69	–
Nc1ncn([C@@H]2O[C@H](CO)[C@@H](O)[C@H]2O)c(=O)n1	-0.988 ± 0.97	–
CC(COc1ccccc1)N(CCCl)Cc1ccccc1 (configuration not stated)	-0.354 ± 0.41	–
CCOC(=O)OC(C)OC(=O)[C@@H]1N2C(=O)[C@@H](NC(=O)[C@H](N)c3ccccc3)[C@H]2SC1(C)C (some centres not stated)	0.24 ± 0.78	–
COC1=C(OC)C(=O)C(CCCCCCCCCCO)=C(C)C1=O	0.407 ± 0.48	–
CCOC(=O)[C@H](CCc1ccccc1)N[C@H]1CCc2ccccc2N(CC(=O)O)C1=O	-0.641 ± 0.68	–
C[C@]12CCC(=O)C=C1CC[C@@H]1[C@@H]2[C@@H](O)C[C@@]2(C)[C@H]1CC[C@]2(O)C(=O)COC(=O)CCC(=O)O	-0.635 ± 0.42	–
CC(C)(C)NC[C@H](O)COc1nsnc1N1CCOCC1	-0.319 ± 0.26	–
NCCCC[C@H](N[C@@H](CCc1ccccc1)C(=O)O)C(=O)N1CCC[C@H]1C(=O)O	0.676 ± 0.74	–
CO/N=C(\C(=O)N[C@@H]1C(=O)N2C(C(=O)O)=C(CSc3nc(=O)c(O)nn3C)CS[C@H]12)c1csc(N)n1	0.383 ± 0.39	–
CC(C)NCC(O)COc1ccc(COCCOC(C)C)cc1 (configuration not stated)	-0.637 ± 0.32	–
O=C1CN2Cc3c(ccc(Cl)c3Cl)N=C2N1	-0.278 ± 0.44	–
Nc1nc(Cl)nc2c1ncn2[C@@H]1O[C@H](CO)[C@@H](O)[C@@H]1F	-1.11 ± 0.022	–
Nc1nc(=O)c2nc(CNc3ccc(C(=O)N[C@@H](CCC(=O)O)C(=O)O)cc3)cnc2[nH]1	1.08 ± 0.53	–

Single entries from the results shown.
Entry for Nc1nc(=O)c2nc(CNc3ccc(C(=O)N[C@@H](CCC(=O)O)C(=O)O)cc3)cnc2[nH]1 under mitochondrial oxygen consumption rate normalised (2 µM): 1.08 ± 0.53
Entry for CC(COc1ccccc1)N(CCCl)Cc1ccccc1 (configuration not stated) under mitochondrial oxygen consumption rate normalised (2 µM): -0.354 ± 0.41
Entry for CC(C)(C)NC[C@H](O)COc1nsnc1N1CCOCC1 under mitochondrial oxygen consumption rate normalised (2 µM): -0.319 ± 0.26
Entry for O=C1CN2Cc3c(ccc(Cl)c3Cl)N=C2N1 under mitochondrial oxygen consumption rate normalised (2 µM): -0.278 ± 0.44

Next part.

SMILES	mitochondrial oxygen consumption rate normalised (2 µM)	mitochondrial oxygen consumption rate normalised (10 µM)
CC(=O)N[C@@H](CC(C)C)C(=O)O	0.343 ± 0.29	–
O=C([O-])[C@H]1/C(=C/CO)O[C@@H]2CC(=O)N21.[Li+]	-0.264 ± 0.46	–
CC[C@H]1OC(=O)[C@H](C)[C@@H](O[C@H]2C[C@@](C)(OC)[C@@H](O)[C@H](C)O2)[C@H](C)[C@@H](O[C@@H]2O[C@H](C)C[C@H](N(C)C)[C@H]2O)[C@](C)(O)C[C@@H](C)/C(=N\OCOCCOC)[C@H](C)[C@@H](O)[C@]1(C)O	0.191 ± 0.44	–
NC(=O)N1c2ccccc2C=Cc2ccccc21	1.08 ± 0.058	–
NCCC[C@H](N)C(=O)O	-0.0363 ± 0.026	–
CN(C)CCN(Cc1cccs1)c1ccccn1	1.12 ± 1	–
CC(=O)OCC(COC(C)=O)OC(C)=O	-0.503 ± 0.076	–
O=c1cc[nH]c(=S)[nH]1	-1.35 ± 0.14	–
CC(=O)OC1CC2CCC1(C)C2(C)C (configuration not stated)	-0.941 ± 0.66	–
CC[C@H]1OC(=O)[C@H](C)[C@@H](O[C@H]2C[C@@](C)(OC)[C@@H](O)[C@H](C)O2)[C@H](C)[C@@H](O[C@@H]2O[C@H](C)C[C@H](N(C)C)[C@H]2O)[C@](C)(O)C[C@@H](C)[C@@H]2N[C@@H](COCCOC)O[C@H]([C@H]2C)[C@]1(C)O	0.29 ± 1.1	-0.149 ± 0.29
O=C1CC2(CCCC2)CC(=O)N1CCCCN1CCN(c2ncccn2)CC1	0.261 ± 0.023	–
CC(=O)Nc1ncc([N+](=O)[O-])s1	0.105 ± 0.071	0.857 ± 0.27
CC12CCC(CC1)C(C)(C)O2	0.356 ± 1.2	–
Cc1cc(CC(=O)O)n(C)c1C(=O)c1ccc(Cl)cc1	0.528 ± 1.7	–
COc1ccc2cc(C(C)C(=O)O)ccc2c1 (configuration not stated)	-0.122 ± 0.38	–
Nc1ccc2cc3ccc(N)cc3nc2c1	0.0446 ± 0.94	–
CC1Cc2ccccc2N1NC(=O)c1ccc(Cl)c(S(N)(=O)=O)c1 (configuration not stated)	-1.06 ± 0.11	–
CCC(=O)c1c(O)cc(O)cc1O	-0.452 ± 0.011	–
FC(F)(Cl)C(F)(F)Cl	0.348 ± 0.15	–
Nc1ccc(S(=O)(=O)Nc2ccnn2-c2ccccc2)cc1	-0.865 ± 0.96	–
CO/N=C(\C(=O)N[C@@H]1C(=O)N2C(C(=O)O)=C(COC(N)=O)CS[C@H]12)c1ccco1	0.55 ± 0.5	–
O=C(NCC(O)CO)c1c(I)c(C(=O)NCC(O)CO)c(I)c(N(CCO)C(=O)CO)c1I (configuration not stated)	0.643 ± 0.39	–
